In all, about 1,000 compounds were measured (“thermal shift dTm”: median about 0.19, highest 2% from about 1.7 on). The list shows a part of the results. Active and inactive are the calls of the source.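 How the source made its calls: active means mean rise in melting temperature of at least 1 degC over same-plate control wells; inactive means below that, where a call was filed.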

Sequences of proteins named here, by UniProt entry; tags and fusion partners are left off. A change or cut given only in a name is not applied to a line headed by its entry.
UniProt O00391: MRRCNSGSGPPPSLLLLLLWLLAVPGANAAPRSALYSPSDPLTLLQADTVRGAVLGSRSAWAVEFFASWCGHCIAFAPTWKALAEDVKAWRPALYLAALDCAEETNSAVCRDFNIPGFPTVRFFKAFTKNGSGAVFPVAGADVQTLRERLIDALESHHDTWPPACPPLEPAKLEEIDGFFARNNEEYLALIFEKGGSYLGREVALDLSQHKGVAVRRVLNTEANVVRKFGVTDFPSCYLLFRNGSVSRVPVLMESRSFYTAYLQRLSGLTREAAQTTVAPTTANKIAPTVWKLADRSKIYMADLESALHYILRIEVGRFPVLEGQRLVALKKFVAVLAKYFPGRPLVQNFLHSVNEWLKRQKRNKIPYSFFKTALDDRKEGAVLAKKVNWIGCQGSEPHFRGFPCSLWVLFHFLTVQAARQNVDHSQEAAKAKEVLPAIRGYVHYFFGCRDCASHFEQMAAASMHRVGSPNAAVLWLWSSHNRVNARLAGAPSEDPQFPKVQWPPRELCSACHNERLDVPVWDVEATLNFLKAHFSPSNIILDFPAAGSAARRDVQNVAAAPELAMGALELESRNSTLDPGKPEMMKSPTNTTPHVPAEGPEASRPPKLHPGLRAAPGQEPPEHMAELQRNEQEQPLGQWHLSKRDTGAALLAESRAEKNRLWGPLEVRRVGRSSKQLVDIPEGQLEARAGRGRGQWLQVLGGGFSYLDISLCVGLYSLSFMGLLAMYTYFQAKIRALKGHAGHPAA

The source of these data is PubChem BioAssay AID1347422 (Sanford-Burnham Center for Chemical Genomics, 2020).

This experiment addresses Sulfhydryl oxidase 1 (Homo sapiens) (UniProt O00391). Description: ligand-induced melting shift of human QSOX1 – biophysical, protein thermal shift, single concentration, QSOX1 inhibitor project, confirmation (AID 1347422).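 Further: dTm is compound Tm minus mean Tm of DMSO-only wells on that plate.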 Conditions: recombinant hQSOX1 thermal shift, Sypro Orange, at 25 µM, stronger effect = higher value.
Regarding `S=C(Nc1ccccc1)N(Cc1ccccc1)Cc1ccccc1`, the thermal shift dTm was inactive: -0.13 °C.
Regarding `CCCc1cc(NCc2ccccn2)n2ncc(-c3ccccc3)c2n1`, the thermal shift dTm is 0.01 °C.
To `C=CCSC1=N/C(=C\c2cccc(OC3CCCC3)c2)C(=O)S1` belongs 0.58 °C; to `Cc1ccc(NC(=O)Nc2ccc(S(=O)(=O)Nc3ccccn3)cc2)cc1`, active: 2.37 °C.
In the case of `O=C(Nc1ccc(S(=O)(=O)N2CCOCC2)cc1)c1cc2ccccc2o1`, the thermal shift dTm stood at 0.14 °C.
As for `O=S(=O)(CC(F)(F)F)N1CCc2onc(-c3ccc(F)c(F)c3)c2C1`, the thermal shift dTm turned out to be 0.93 °C.
Regarding `CC(=O)Nc1ccc(C(=O)Nc2ccccc2)cc1`, the thermal shift dTm is active: 1.02 °C.
As to `Cc1cccc(C(=O)NC(Nc2ccc(C)cc2C)C(Cl)(Cl)Cl)c1` (stereo not drawn), the thermal shift dTm is 0.05 °C.
Consider `CCOc1ccc(-c2nc3ccccc3c(=O)o2)cc1Cl`, for which the thermal shift dTm turned out to be 0.86 °C.
As to `CC(C)c1ccc(/C=C/C(=O)Nc2ccc(C(C)C)cc2)cc1`, the thermal shift dTm is inactive: -0.09 °C.
To `COc1cc(CNc2ccccc2Cl)cc(I)c1O` belongs inactive: -0.09 °C; to `CCCCOc1ccc(-c2[nH]ncc2Oc2ccccc2)c(O)c1`, 0.16 °C.
`COc1ccc(C2=N[N+](c3nc(-c4ccc(S(=O)(=O)N5CCCCC5)cc4)cs3)=C(c3ccc(OC)cc3)C2)cc1`: the thermal shift dTm is 0.19 °C.
The result for `Cc1cc(C)cc(OCCNC(=O)c2ccc(Cl)c(Cl)c2)c1` reads 0.05 °C; that for `O=C(Nc1cccc(-c2ccco2)c1)C1CCN(C(=O)c2ccoc2)CC1`, active: 1.03 °C.
On to `NC(=O)c1ccc(NC(=O)c2cccc(C(F)(F)F)c2)cc1`, for which the thermal shift dTm was 0.7 °C.
In the case of `CC1=Nc2ccccc2/C1=C/c1c(O)n(Cc2ccco2)c(=O)[nH]c1=O`, the thermal shift dTm was determined as 0.93 °C.
The result for `O=C(NC(=S)Nc1cccc(Cl)c1N1CCOCC1)c1cccs1` reads inactive: -0.04 °C; that for `Oc1ccccc1C=Nc1ccc(Cc2ccc(N=Cc3ccccc3O)c(O)c2)cc1O`, 0.01 °C.
The result for `CNS(=O)(=O)c1ccc(NC(=O)c2csc(C)c2C)cc1` reads inactive: -0.05 °C; that for `CCOc1ccc(Br)cc1-c1nc2ccccc2c(=O)o1`, 0.43 °C; that for `Cc1c(CC2C(=O)Nc3ccccc32)oc2ccc(F)cc12` (stereo not drawn), 0.32 °C.
Take `O=C(Nc1cccc(-c2ccn[nH]2)c1)c1ccc(C2CCCN2)s1` (stereo not drawn): the thermal shift dTm was found to be 0.14 °C.
With `Cc1ccccc1-c1nnc(NC(=O)NC(C)c2nc3ccccc3[nH]2)s1` (stereo not drawn), the thermal shift dTm was found to be 0.51 °C.
For `CCS(=O)(=O)Nc1ccc(C(=O)Nc2cccc(F)c2)cc1`, the thermal shift dTm was found to be 0.38 °C.
The result for `CN1Cc2ccccc2CC1CNC(=O)c1cn(Cc2ccccc2F)nn1` (stereo not drawn) reads 0.14 °C.
To `Cc1cc(C)cc(NC(=O)C(C)N2C(=O)c3cccc4cccc2c34)c1` (stereo not drawn) belongs 0.11 °C.
For the compound `COc1ccc(Br)cc1S(=O)(=O)Nc1cccc(O)c1`, the thermal shift dTm is 0.09 °C.
Regarding `Oc1ccc(-c2[nH]ncc2Oc2ccc(-c3ccccc3)cc2)c(O)c1`, the thermal shift dTm was inactive: -0.17 °C.
The result for `CCCOc1ccc(Nc2ncnc3ccc(Br)cc23)cc1` reads 0.11 °C.
The result for `Nc1cccc(/C=C/C(=O)c2cccc(N)c2)c1` reads inactive: -0.03 °C.
To `CCc1cc(-c2n[nH]c(C)c2Oc2ccc(F)cc2)c(O)cc1OC` belongs 0.02 °C.
As for `CN(CCC1CCCCO1)Cc1nc(-c2ccc3c(c2)OCO3)no1` (stereo not drawn), the thermal shift dTm was 0.28 °C.
To `O=[N+]([O-])C1=C(Nc2ccc(Cl)c(Cl)c2)CS(=O)(=O)C1` belongs 0.01 °C.
Regarding `O=C(c1ccc(F)cc1)c1ccc(-c2[nH]c(-c3ccc(Cl)cc3Cl)nc2-c2ccccc2)cc1`, the thermal shift dTm is inactive: -0.04 °C.
To `Cc1cccc(NC(=O)NCCc2ccc(O)cc2)c1` belongs 0.13 °C.
To `Cc1ccc2sc(-c3ccc(NC(=O)CCc4ccccc4)cc3)nc2c1` belongs 0.4 °C; to `Clc1cccc(OCCCCOc2cccc3cccnc23)c1`, inactive: -0.04 °C; to `Cc1cc(=O)[nH]c(SCc2ccc(C(=O)Nc3nccs3)cc2)n1`, 0.32 °C.
In the case of `CCOc1ccc(NC(=O)c2ccc(-c3csc(C)n3)cc2)cc1`, the thermal shift dTm came to 0.15 °C.
To `Cc1cc(Cl)c(Cl)cc1S(=O)(=O)Nc1ccc2cn[nH]c2c1` belongs active: 1.02 °C.
Consider `Cc1cccc(N)c1NC(=O)c1ccc(OC(F)(F)F)cc1`, for which the thermal shift dTm is 0.2 °C.
Take `CC(=O)c1sc(Nc2ccc(Oc3ccccc3)cc2)nc1C`: the thermal shift dTm was 0.15 °C.
Consider `CN1CCN(c2ccc(NC(=O)c3ccc4c(c3)OCCO4)cc2Cl)CC1`, for which the thermal shift dTm was determined as 0 °C.
With `CCN(CC)c1ccc(NC2=NC(c3ccncc3)=[C+]S2)cc1`, the thermal shift dTm is inactive: -0.04 °C.
To `COc1ccc(Nc2nc(-c3ccncc3)cs2)cc1` belongs inactive: -0.08 °C.
The result for `Cc1ccccc1CNC(=O)/C=C/c1ccc(C(C)(C)C)cc1` reads 0.11 °C; that for `CC(=O)Nc1cccc(NC(=O)c2ccc(C)s2)c1`, 0.23 °C.
To `NC(=O)c1ccc(NC(=O)Nc2cc(Cl)ccc2Cl)cc1` belongs 0.19 °C; to `Cc1nc(-c2cccc(NC(=O)c3cccs3)c2)cs1`, active: 1.55 °C; to `Brc1ccc(-c2nc(-c3ccccc3)c(-c3ccc(Br)cc3)[nH]2)cc1`, inactive: -0.09 °C.
For `O=C(NCCc1cccs1)Nc1ccccc1`, the thermal shift dTm was 0.28 °C.
To `CC(C)CNC(=S)Nc1ccc(Oc2ccccc2)cc1` belongs 0.35 °C; to `CCOc1cc(-c2nc3ccccc3s2)cc(Br)c1OC`, 0.4 °C; to `Cn1nccc1-c1nc(-c2cccc3[nH]ccc23)no1`, 0.23 °C.
The result for `NC1=NC(=O)/C(=C\c2ccc(-c3ccc(Cl)c(C(=O)O)c3)o2)S1` reads active: 1.17 °C; that for `O=C(Nc1ccc(N2CCOCC2)cc1)Nc1ccc2snnc2c1`, inactive: -7.53 °C; that for `COc1ccc(C(=O)c2sc3nc(-c4ccco4)cc(C(F)(F)F)c3c2N)cc1OC`, 0.72 °C.
For the compound `CC(C)=CC(=O)Nc1ccc(I)cc1`, the thermal shift dTm turned out to be 0.21 °C.
Regarding `COc1ccc(NC(=O)c2ccc(Cl)s2)cc1OC`, the thermal shift dTm turned out to be 0.19 °C.
To `CCCc1ccc(C(=O)Nc2ccc3c(c2)OCCO3)cc1` belongs 0.09 °C; to `Clc1ccc(CNc2nc3nonc3nc2N2CCOCC2)s1`, 0.57 °C.
Turning to `CCc1sc(NS(=O)(=O)c2ccccc2)nc1-c1ccccc1`, the thermal shift dTm is 0.48 °C.
Consider `CCOc1cc(C(=S)N2CCOCC2)ccc1OCc1ccc(Br)cc1`, for which the thermal shift dTm was inactive: -0.03 °C.
The result for `Cc1cccc(C(=O)Nc2cccc(-c3csc(C)n3)c2)c1` reads active: 1.13 °C; that for `COc1ccccc1NC(=O)c1ccccc1-c1nc(-c2ccccc2F)no1`, inactive: -0.09 °C.
To `CCC(=O)NC(N(Cc1ccccc1)Cc1ccccc1)C(Cl)(Cl)Cl` (stereo not drawn) belongs 0.19 °C.
The result for `O=C(Nc1ccc(Br)cc1)N1CCN(c2ccccc2)CC1` reads inactive: -12.2 °C; that for `CCC(C)c1ccc(NC(=O)NCc2cccs2)cc1` (stereo not drawn), 0.47 °C.
Consider `C/C(=N\Nc1cc(C)nc(-c2ccccc2O)n1)c1ccccc1`, for which the thermal shift dTm is inactive: -0.04 °C.
To `Cc1ccc(NC(=O)NCCN2CCN(c3ccccc3)CC2)cc1F` belongs 0.23 °C; to `CCC(C)c1ccc(NC(=S)Nc2ccc(OCc3ccccc3)cc2)cc1` (stereo not drawn), 0.63 °C; to `CC(=O)N1CCN(c2ccc(NC(=O)/C=C/c3ccccc3)cc2)CC1`, 0.81 °C.
Regarding `O=C(Nc1ccc2c(c1)OCCO2)c1cccc(NC(=O)c2cccs2)c1`, the thermal shift dTm was determined as 0.83 °C.
Regarding `Cc1cc2ncn(CCCOc3ccc(Cl)cc3)c2cc1C`, the thermal shift dTm amounted to 0.11 °C.
As to `Cc1ccc(NS(=O)(=O)c2cc(C(=O)Nc3ccc4c(c3)OCO4)ccc2C)c(C)c1`, the thermal shift dTm was 0.61 °C.
Regarding `CCc1nn2c(N)c(C#N)nnc2c1-c1ccc(Cl)cc1`, the thermal shift dTm amounted to 0.47 °C.
The result for `COc1ccc(/C=C/c2ccc3cccc(O)c3n2)cc1O` reads inactive: -22.2 °C; that for `COCc1cc(=O)c2c(=O)n(-c3ccccc3)[nH]c2[nH]1`, 0.61 °C; that for `CCOC(=O)C(C(=O)Nc1ccc(Cl)c(Cl)c1)C1CCCCC1` (stereo not drawn), 0.02 °C.
In the case of `O=C(NC1CC(=O)N(Cc2cccc3ccccc23)C1)C(=O)c1ccccc1` (stereo not drawn), the thermal shift dTm was found to be 0.23 °C.
To `O=S(=O)(Nc1ccc2c(c1)OCCO2)c1ccc(OC(F)(F)F)cc1` belongs 0.37 °C; to `CC(=O)Nc1cccc(-c2csc(Nc3ccc(C)cn3)n2)c1`, active: 1.21 °C; to `Cc1ccc(S(=O)(=O)Nc2ccc(C(=O)Nc3ccc4c(c3)OCO4)cc2)cc1`, active: 1.03 °C.
To `COc1ccc(Cl)cc1S(=O)(=O)Nc1cccc(O)c1` belongs 0.23 °C.
As to `O=C(Nc1ccc(S(=O)(=O)N2CCCC2)cc1)c1ccc2c(c1)OCO2`, the thermal shift dTm is active: 1.04 °C.
Consider `CC(NS(=O)(=O)c1ccc(Cl)cc1)C1C2CC3CC(C2)CC1C3` (stereo not drawn), for which the thermal shift dTm came to 0.05 °C.
With `CCOc1cccc(C(=O)Nc2ccc(F)c(F)c2)c1`, the thermal shift dTm is active: 1.44 °C.
With `COc1ccc(NC(=O)Nc2cccc(Cl)c2)cn1`, the thermal shift dTm was active: 1.02 °C.
As to `CC(=O)N1CCN(c2ncccc2CNC(=O)Nc2cccc(F)c2)CC1`, the thermal shift dTm was 0.85 °C.
Turning to `COc1ccc(/C=C/C=C2\N=C(SCc3ccccc3)SC2=O)cc1`, the thermal shift dTm stood at 0.63 °C.
The result for `Cc1[nH]nc(-c2ccc(O)cc2O)c1Oc1ccccc1F` reads 0.2 °C.
The result for `C=CCN1C(=O)C(c2c(C)[nH]c3ccccc23)(c2c(C)[nH]c3ccccc23)c2ccccc21` reads active: 1.05 °C.
To `O=C(CCC(=O)OCc1ccc(Br)cc1)Nc1cc(C(F)(F)F)ccc1Cl` belongs 0.17 °C.
For `COc1ccc(OCCOCCOc2ccc(C(C)(C)C)cc2)cc1`, the thermal shift dTm turned out to be 0.11 °C.
For the compound `N#Cc1cccc(-c2nc3c(cnn3CC3CC=CCC3)[nH]2)c1` (stereo not drawn), the thermal shift dTm turned out to be 0.14 °C.
Turning to `Cc1ccccc1NC(=O)Nc1nnc(C23CC4CC(CC(C4)C2)C3)s1`, the thermal shift dTm stood at 0.2 °C.
To `COc1cccc(NC(=O)Nc2cc(C)ccc2F)c1` belongs 0 °C; to `CC(NC(=S)NCc1ccccc1)C12CC3CC(CC(C3)C1)C2` (stereo not drawn), 0.45 °C.
Turning to `Cc1ccc2[nH]cc(CCNC(=O)c3ccccc3Cl)c2c1`, the thermal shift dTm is inactive: -0.13 °C.
As to `COc1cc(S(=O)(=O)NC(c2ccccc2)c2ccccc2)ccc1F`, the thermal shift dTm was found to be 0.07 °C.
Regarding `CCC(=O)Nc1ccc(OC(=O)c2ccccc2Cl)cc1`, the thermal shift dTm amounted to 0.25 °C.
To `Cc1ccc(C(=O)Nc2nc(-c3ccccc3)c(C)s2)s1` belongs 0.01 °C; to `O=C(CCC1CCCN(C(=O)CCN2CCCO2)C1)N1CCN(Cc2ccccc2)CC1` (stereo not drawn), 0.04 °C.
The result for `CCCC(=O)Nc1cccc(NC(=O)/C=C/c2ccc(Cl)cc2)c1` reads inactive: -31.6 °C; that for `C=CCSc1nc(-c2ccccc2)ccc1C#N`, inactive: -0.17 °C.
In the case of `CCC(c1ccc(OC)cc1)N(CC)C(=O)Nc1ccccc1` (stereo not drawn), the thermal shift dTm turned out to be 0.14 °C.
The result for `Cc1cccc(/C=C/c2ccc3cccc(O)c3n2)c1O` reads 0.57 °C.
